Source: doi:10.1101/666115
These are yes or no findings as the source states them, for the method shown. Binding calls can cover weak binding; strength is not graded here.

Protein sequences, listed by entry. Tags and fused reporters are not part of them. Lines headed by an entry give the natural chain unless they say otherwise; changes in a name come on top.
UniProt Q56NI9: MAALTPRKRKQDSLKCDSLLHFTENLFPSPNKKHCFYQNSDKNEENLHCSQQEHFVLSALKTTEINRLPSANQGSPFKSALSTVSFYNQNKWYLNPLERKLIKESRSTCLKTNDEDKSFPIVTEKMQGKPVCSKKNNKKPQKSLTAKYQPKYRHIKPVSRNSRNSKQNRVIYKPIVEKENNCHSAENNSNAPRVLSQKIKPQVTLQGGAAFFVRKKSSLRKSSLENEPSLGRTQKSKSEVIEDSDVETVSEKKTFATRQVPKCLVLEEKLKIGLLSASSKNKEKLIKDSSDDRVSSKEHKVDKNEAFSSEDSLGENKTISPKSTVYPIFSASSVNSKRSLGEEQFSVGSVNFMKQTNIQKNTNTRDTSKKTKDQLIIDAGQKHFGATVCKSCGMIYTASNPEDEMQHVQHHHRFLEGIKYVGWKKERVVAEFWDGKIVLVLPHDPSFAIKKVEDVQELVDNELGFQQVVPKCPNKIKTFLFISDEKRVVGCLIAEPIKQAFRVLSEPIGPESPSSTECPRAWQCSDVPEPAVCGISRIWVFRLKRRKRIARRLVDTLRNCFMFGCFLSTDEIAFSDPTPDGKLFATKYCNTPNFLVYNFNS
UniProt P12004: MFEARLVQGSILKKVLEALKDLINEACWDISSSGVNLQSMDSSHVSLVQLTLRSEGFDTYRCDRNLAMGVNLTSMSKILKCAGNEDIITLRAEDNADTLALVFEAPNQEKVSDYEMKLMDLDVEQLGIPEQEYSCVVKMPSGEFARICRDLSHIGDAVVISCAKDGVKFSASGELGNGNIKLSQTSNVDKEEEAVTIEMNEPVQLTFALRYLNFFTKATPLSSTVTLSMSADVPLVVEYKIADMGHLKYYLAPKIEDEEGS

How the values were obtained:
Assay in all cases: lacO-lacI tethering
[1] = biological target: mCherry-lacI-ESCO2 with Box A deleted (UniProt Q56NI9)
[2] = biological target: mCherry-lacI-ESCO2 with Box B deleted (UniProt Q56NI9)
[3] = biological target: mCherry-lacI-ESCO2 with the PIP box deleted (UniProt Q56NI9)

Measured: binding

GFP-PCNA (from UniProt P12004 1-261)
binds: all assays above
